Consider 37 variants from the supplement of paper PMC6445147.

The chains are these.
B1: human tRNA-Pro; a variant is named by its letters at N, in order (parent)
chain: GGCTCGTTGGTCTAGNGGTATGATTCTCGCTTAGGGTGCGAGAGGTCCCGGGTTCNNATCCCGGACGAGCCC

Series [1] covers variants of B1. Kind of series: tRNA Pol-III promoter activity, log2 (circRNA frequency / plasmid DNA frequency) (log2 ratio); higher = stronger promoter activity. The conditions noted are these: HEK293T; construct: no Pol-II promoter ((-)CMV library).
Series [2] covers variants of B1. Kind of series: tRNA 3' processing efficiency (processed reads / all reads, maximum-likelihood estimate) (fraction); higher = more efficient 3' processing. The settings on record: HEK293T; construct: no Pol-II promoter ((-)CMV library).
The variants in series [3] derive from B1. Kind of series: tRNA 5' processing efficiency (processed reads / all reads, maximum-likelihood estimate) (fraction); higher = more efficient 5' processing. The conditions noted are these: HEK293T; construct: CMV Pol-II promoter ((+)CMV library, decapped).

This is a noisy data set.

In the case of GGCTCGTTGGTCTAGGTGTATGATTCTCGCTTAGGGTGCGAGAGGTCCCGGGTTCATATCCCGGACGAGCCC [GAT G17T], the “tRNA Pol-III promoter activity (log2)” value in series [1] came to 0.137. The “tRNA 3' processing efficiency” value in series [2] is 0.27.
For GGCTCGTTGGTCTAGGCGTATGATTCTCGCTTAGGGTGCGAGAGGTCCCGGGTTCATATCCCGGACGAGCCC [GAT G17C], in that order: -0.749 and 0.33.
Take GGCTCGTTGGTCTACGGTTGTGATTCTCGCTTAGGGTGCGAGAGGTCCCGGGTTCATATCCCGGACGAGCCC [GAT G15C G18T A20G]: the “tRNA Pol-III promoter activity (log2)” value in series [1] is 3.61. The “tRNA 3' processing efficiency” value in series [2] was 0.5.
For GGCTCGTTGGTCTAGGAATATGATTCTCGCTTAGGGTGCGAGAGGTCCCGGGTTCATATCCCGGACGAGCCC [GAT G17A G18A], the “tRNA Pol-III promoter activity (log2)” value in series [1] is 5.87. For the same variant, the “tRNA 3' processing efficiency” value in series [2] was 0.62.
GGCTCGTTGGTCTAGGGATCTGATTCTCGCTTAGGGTGCGAGAGGTCCCGGGTTCATATCCCGGACGAGCCC [GAT G18A A20C]: the “tRNA Pol-III promoter activity (log2)” value in series [1] came out at 4.61. Besides, in series [2], the “tRNA 3' processing efficiency” value is 0.38.
For GGCTCGTTGGTCTATGAGTATGATTCTCGCTTAGGGTGCGAGAGGTCCCGGGTTCATATCCCGGACGAGCCC [GAT G15T G17A], in that order: 3.88 and 0.67.
Turning to GGCTCGTTGGTCTATGTGTATGATTCTCGCTTAGGGTGCGAGAGGTCCCGGGTTCATATCCCGGACGAGCCC [GAT G15T G17T], the “tRNA Pol-III promoter activity (log2)” value in series [1] came out at 2.55. Besides, the “tRNA 3' processing efficiency” value in series [2] is 0.2.
Regarding GGCTCGTTGGTCTACGGGAATGATTCTCGCTTAGGGTGCGAGAGGTCCCGGGTTCATAACCCGGACGAGCCC [GAT G15C T19A T59A], the “tRNA Pol-III promoter activity (log2)” value in series [1] amounted to 6.53. Besides, the “tRNA 3' processing efficiency” value in series [2] is 0.5.
For GGCTCGTTGGTCTAGGAGGATGATTCTCGCTTAGGGTGCGAGAGGTCCCGGGTTCATATCCCGGACGAGCCC [GAT G17A T19G], in series [1], the “tRNA Pol-III promoter activity (log2)” value stood at 1.45. Moreover, the “tRNA 3' processing efficiency” value in series [2] was 0.4.
Taken in the same sequence, the figures for GGCTCGTTGGTCTAGGCGTTTGATTCTCGCTTAGGGTGCGAGAGGTCCCGGGTTCATATCCCGGACGAGCCC [GAT G17C A20T] were 3.94 and 0.29.
With GGCTCGTTGGTCTAGGCGTGTGATTCTCGCTTAGGGTGCGAGAGGTCCCGGGTTCATATCCCGGACGAGCCC [GAT G17C A20G], in series [1], the “tRNA Pol-III promoter activity (log2)” value amounted to 2.34. The “tRNA 3' processing efficiency” value in series [2] was 0.2.
On to GGCTCGTTGGTCTATGGGTATGATTCTCGCTTAGGGTGCGAGAGGTCCCGGGTTAATATCCCGGACGAGCCC [GAT G15T C55A], for which, in series [1], the “tRNA Pol-III promoter activity (log2)” value worked out at 2.04. Besides, the “tRNA 3' processing efficiency” value in series [2] is 0.75.
For the variant GGCTCGTTGGTCTACTGGCATGATTCTCGCTTAGGGTGCGAGAGGTCCCGGGTTCATATCCCGGACGAGCCC [TAT G15C T19C], the “tRNA Pol-III promoter activity (log2)” value in series [1] amounted to 6.74. The “tRNA 3' processing efficiency” value in series [2] was 0.29.
Consider GGCTCGTTGGTCTATCGGTATGATTCTCGCTTAGGGTGCGAGAGGTCCCGGGTTCATATCCCGGACGAGCCC [CAT G15T], for which the “tRNA Pol-III promoter activity (log2)” value in series [1] came to 3.02. Besides, the “tRNA 3' processing efficiency” value in series [2] is 0.22.
With GGCTCGTTGGTCTAGGCATATGATTCTCGCTTAGGGTGCGAGAGGTCCCGGGTTCATATCCCGGACGAGCCC [GAT G17C G18A], in series [1], the “tRNA Pol-III promoter activity (log2)” value worked out at 3.05. Besides, the “tRNA 3' processing efficiency” value in series [2] was 0.17.
GGCTCGTTGGTCTAGGCGAATGATTCTCGCTTAGGGTGCGAGAGGTCCCGGGTTCATATCCCGGACGAGCCC [GAT G17C T19A]: the “tRNA Pol-III promoter activity (log2)” value in series [1] came out at 2.76. The “tRNA 3' processing efficiency” value in series [2] was 0.25. For the same variant, in series [3], the “tRNA 5' processing efficiency” value was 0.25.
For GGCTCGTTGGTCTACGGGTATGATTCTCGCTTAGGGTGCGAGAGGTCCCGGGTTCATGTCCCGGACGAGCCC [GAT G15C A58G], the “tRNA Pol-III promoter activity (log2)” value in series [1] worked out at 3.71. Moreover, in series [2], the “tRNA 3' processing efficiency” value was 0.25.
For GGCTCGTTGGTCTACGGGTATGATTCTCGCTTAGGGTGCGAGAGGTCCCGGGTTCATTTCCCGGACGAGCCC [GAT G15C A58T], in that order: 3.72 and 0.33.
For GGCTCGTTGGTCTAGGTCTGTGATTCTCGCTTAGGGTGCGAGAGGTCCCGGGTTCATATCCCGGACGAGCCC [GAT G17T G18C A20G], in that order: 6.03 and 0.25.
GGCTCGTTGGTCTATGGCTATGATTCTCGCTTAGGGTGCGAGAGGTCCCGGGTTCATATCCCGGACGAGCCC [GAT G15T G18C]: the “tRNA Pol-III promoter activity (log2)” value in series [1] turned out to be 2.94. In addition, in series [2], the “tRNA 3' processing efficiency” value is 0.38.
Taken in the same sequence, the figures for GGCTCGTTGGTCTATGGATATGATTCTCGCTTAGGGTGCGAGAGGTCCCGGGTTCATATCCCGGACGAGCCC [GAT G15T G18A] were 4.45 and 0.25.
In the case of GGCTCGTTGGTCTATGGGTATGATTCTCGCTTAGGGTGCGAGAGGTCCCGGGTTCATATCCCGGACGAGCCC [GAT G15T], in series [1], the “tRNA Pol-III promoter activity (log2)” value is -0.0896. Moreover, the “tRNA 3' processing efficiency” value in series [2] was 0.48. For the same variant, the “tRNA 5' processing efficiency” value in series [3] was 0.33.
As for GGCTCGTTGGTCTACGGTTATGATTCTCGCTTAGGGTGCGAGAGGTCCCGGGTTCATATCCCGGACGAGCCC [GAT G15C G18T], in series [1], the “tRNA Pol-III promoter activity (log2)” value is 3.23. For the same variant, the “tRNA 3' processing efficiency” value in series [2] is 0.25.
As for GGCTCGTTGGTCTAGGGATATGATTCTCGCTTAGGGTGCGAGAGGTCCCGGGTTCATTTCCCGGACGAGCCC [GAT G18A A58T], in series [1], the “tRNA Pol-III promoter activity (log2)” value was 3.53. The “tRNA 3' processing efficiency” value in series [2] was 0.22.
Taken in the same sequence, the figures for GGCTCGTTGGTCTAGGGATATGATTCTCGCTTAGGGTGCGAGAGGTCCCGGGTTCATATCCCGGACGAGCCC [GAT G18A] were 2.38 and 0.41.
With GGCTCGTTGGTCTAGATGTATGATTCTCGCTTAGGGTGCGAGAGGTCCCGGGTTCATATCCCGGACGAGCCC [AAT G17T], the “tRNA Pol-III promoter activity (log2)” value in series [1] was found to be 2.23. Besides, in series [2], the “tRNA 3' processing efficiency” value is 0.25.
As for GGCTCGTTGGTCTAGACGTATGATTCTCGCTTAGGGTGCGAGAGGTCCCGGGTTCATATCCCGGACGAGCCC [AAT G17C], the “tRNA Pol-III promoter activity (log2)” value in series [1] stood at 4.36. The “tRNA 3' processing efficiency” value in series [2] is 0.25.
Regarding GGCTCGTTGGTCTATGGGTATGATTCTCGCTTAGGGTGCGAGAGGTCCCGGGTTCATTTCCCGGACGAGCCC [GAT G15T A58T], the “tRNA Pol-III promoter activity (log2)” value in series [1] came to 3.05. The “tRNA 3' processing efficiency” value in series [2] is 0.5.
As to GGCTCGTTGGTCTAGAGATATGATTCTCGCTTAGGGTGCGAGAGGTCCCGGGTTCATATCCCGGACGAGCCC [AAT G18A], the “tRNA Pol-III promoter activity (log2)” value in series [1] is 1.86. Moreover, in series [2], the “tRNA 3' processing efficiency” value was 0.2.
Regarding GGCTCGTTGGTCTAGTCGTATGATTCTCGCTTAGGGTGCGAGAGGTCCCGGGTTCATTTCCCGGACGAGCCC [TAT G17C A58T], in series [1], the “tRNA Pol-III promoter activity (log2)” value was found to be 4.03. Also, the “tRNA 3' processing efficiency” value in series [2] was 0.4.
Turning to GGCTCGTTGGTCTAGGCGTATGATTCTCGCTTAGGGTGCGAGAGGTCCCGGGATCATATCCCGGACGAGCCC [GAT G17C T53A], the “tRNA Pol-III promoter activity (log2)” value in series [1] was determined as 4.07. Besides, the “tRNA 3' processing efficiency” value in series [2] was 0.64.
For GGCTCGTTGGTCTACGGGAATGATTCTCGCTTAGGGTGCGAGAGGTCCCGGGTTCATATCCCGGACGAGCCC [GAT G15C T19A], in that order: 3.35 and 0.39.
For GGCTCGTTGGTCTAGCCGTATGATTCTCGCTTAGGGTGCGAGAGGTCCCGGGTTCATATCCCGGACGAGCCC [CAT G17C], the “tRNA Pol-III promoter activity (log2)” value in series [1] turned out to be 3.34. Further, the “tRNA 3' processing efficiency” value in series [2] was 0.17.
With GGCTCGTTGGTCTAGGAGTATGATTCTCGCTTAGGGTGCGAGAGGTCCCGGGTTCATCTCCCGGACGAGCCC [GAT G17A A58C], the “tRNA Pol-III promoter activity (log2)” value in series [1] is 5.18. The “tRNA 3' processing efficiency” value in series [2] was 0.79.
For GGCTCGTTGGTCTAGGGACATGATTCTCGCTTAGGGTGCGAGAGGTCCCGGGTTCATATCCCGGACGAGCCC [GAT G18A T19C], in that order: 2.79 and 0.4.
Take GGCTCGTTGGTCTAGGGAGATGATTCTCGCTTAGGGTGCGAGAGGTCCCGGGTTCATATCCCGGACGAGCCC [GAT G18A T19G]: in series [1], the “tRNA Pol-III promoter activity (log2)” value came out at 4.88. The “tRNA 3' processing efficiency” value in series [2] is 0.56.
For GGCTCGTTGGTCTAGGAGTCTGATTCTCGCTTAGGGTGCGAGAGGTCCCGGGTTCATATCCCGGACGAGCCC [GAT G17A A20C], the “tRNA Pol-III promoter activity (log2)” value in series [1] is 4.36. The “tRNA 3' processing efficiency” value in series [2] is 0.62.
